Results reported in the supplement of paper PMC9744312.
Counter-ions that a name gives are not always drawn. The list shows a part of the results. This is a noisy data set.

system: Peyronie's disease tunica albuginea primary fibroblasts; assay: cell viability (DRAQ5 nuclear stain) relative to TGF-beta1-only control; higher = more viable cells; settings: 10 µM; TGF-beta1 10 ng/mL; 72 h

SMILES	cell viability [%]
CNC(=O)[C@H](Cc1ccccc1)NC(=O)[C@H](CC(C)C)[C@H](CSc1cccs1)C(=O)NO [Batimastat (BB-94)]	91.7
Nc1cccc2c1CN(C1CCC(=O)NC1=O)C2=O (centres undefined) [Lenalidomide (CC-5013)]	99
O=S(=O)(O)CCCS(=O)(=O)O [Eprodisate disodium]	97.1
COc1ccc2[nH]c([S+]([O-])Cc3ncc(C)c(OC)c3C)nc2c1 (centres undefined) [Omeprazole]	90.1
O=C1/C(=C2\Nc3ccccc3C2=O)Nc2ccccc21 [Indigo]	98.2
Cc1ccccc1N1C(=O)c2cc(S(N)(=O)=O)c(Cl)cc2NC1C (centres undefined) [Metolazone]	92.2
Cc1cc(-n2c(=O)[nH]c(=O)n(C)c2=O)ccc1Oc1ccc(SC(F)(F)F)cc1 [Toltrazuril]	87.2
[I-].[K+] [Potassium Iodide]	82.5
O=C(NS(=O)(=O)c1ccc(Br)s1)c1ccc(Cl)cc1Cl [Tasisulam]	68.5
C=CC1=C(C(=O)O)N2C(=O)[C@@H](NC(=O)/C(=N\OCC(=O)O)c3csc(N)n3)[C@H]2SC1 [Cefixime]	84.1
OCCOCCN1CCN(C(c2ccccc2)c2ccc(Cl)cc2)CC1 (centres undefined) [Hydroxyzine 2HCl]	73
OCCOCCN1CCN(C(c2ccccc2)c2ccc(Cl)cc2)CC1 (centres undefined) [Hydroxyzine pamoate]	56.3
CCOC(=O)c1c(C)n(C)c2ccc(O)cc12 [Mecarbinate]	91.2
COc1ccc(C[C@@H]2c3cc(OC)c(OC)cc3CC[N@+]2(C)CCC(=O)OCCCCCOC(=O)CC[N@@+]2(C)CCc3cc(OC)c(OC)cc3[C@H]2Cc2ccc(OC)c(OC)c2)cc1OC [Cisatracurium Besylate]	87.8
C=C[C@@H]1C[C@]1(NC(=O)[C@@H]1C[C@@H](Oc2ncc(OC)c3ccc(Cl)cc23)CN1C(=O)[C@@H](NC(=O)OC(C)(C)C)C(C)(C)C)C(=O)NS(=O)(=O)C1CC1 [Asunaprevir]	97.3
N#Cc1ccc(Oc2ccc3c(c2)COB3O)cc1 [Crisaborole (AN2728)]	105
CC(N)C12CC3CC(CC(C3)C1)C2 (centres undefined) [Rimantadine]	96.8
CC(N)C12CC3CC(CC(C3)C1)C2 (centres undefined) [Rimantadine Hydrochloride]	89.9
CN(CCOc1ccc(CC2SC(=O)NC2=O)cc1)c1ccccn1 (centres undefined) [Rosiglitazone HCl]	85.2
CN(CCOc1ccc(CC2SC(=O)NC2=O)cc1)c1ccccn1 (centres undefined) [Rosiglitazone]	85.7
CN(CCOc1ccc(CC2SC(=O)NC2=O)cc1)c1ccccn1 (centres undefined) [Rosiglitazone maleate]	86.5
CCCc1nc(C(C)(C)O)c(C(=O)O)n1Cc1ccc(-c2ccccc2-c2nnn[nH]2)cc1 [Olmesartan]	92.7

SMILES	cell viability [%]
O=C(OCc1ccccc1)c1ccccc1 [Benzyl benzoate]	95.6
OC(CCN1CCCCC1)(c1ccccc1)C1CCCCC1 (centres undefined) [Trihexyphenidyl hydrochloride]	83.7
N=C(N)N/N=C/c1c(Cl)cccc1Cl [Guanabenz Acetate]	92.8
Cc1ccc2c(Cl)cc(Cl)c(O)c2n1 [Chlorquinaldol]	78.6
C[C@H](Oc1cc(-c2cnn(C3CCNCC3)c2)cnc1N)c1c(Cl)ccc(F)c1Cl [(S)-crizotinib]	72.9
CCCCCCCCCC(=O)N[C@H]1[C@H](Oc2c3cc4cc2Oc2ccc(cc2Cl)[C@@H](O[C@@H]2O[C@H](CO)[C@@H](O)[C@H](O)[C@H]2NC(C)=O)[C@@H]2NC(=O)[C@H](NC(=O)[C@@H]4NC(=O)[C@H]4NC(=O)[C@@H](Cc5ccc(c(Cl)c5)O3)NC(=O)[C@H](N)c3ccc(O)c(c3)Oc3cc(O)cc4c3)c3ccc(O)c(c3)-c3c(OC4O[C@H](CO)[C@@H](O)[C@H](O)[C@@H]4O)cc(O)cc3[C@@H](C(=O)O)NC2=O)O[C@H](CO)[C@@H](O)[C@@H]1O (some centres undefined) [Teicoplanin]	93.5
CN(C)CCOC(=O)COc1ccc(Cl)cc1 [Meclofenoxate (Centrophenoxine) HCl]	91
Brc1c(NC2=NCCN2)ccc2nccnc12 [Brimonidine Tartrate]	91.2
CC[C@@H]1/C=C(\C)C[C@H](C)C[C@H](OC)[C@H]2O[C@@](O)(C(=O)C(=O)N3CCCC[C@H]3C(=O)O[C@H](/C(C)=C/[C@@H]3CC[C@H](Cl)[C@H](OC)C3)[C@H](C)[C@@H](O)CC1=O)[C@H](C)C[C@@H]2OC [Pimecrolimus]	101
OC[C@H]1O[C@@H](O[C@@H]2[C@@H](CO)OC(O)(CO)[C@H]2O)[C@H](O)[C@@H](O)[C@H]1O (mixture of isomers) [Lactulose]	86.7
N[C@@H](C(=O)N[C@@H]1C(=O)N2C(C(=O)O)=C(Cl)CS[C@H]12)c1ccccc1 [Cefaclor]	96.8
CCCCCCCCN=c1ccn(CCCCCCCCCCn2ccc(=NCCCCCCCC)cc2)cc1 [Octenidine Dihydrochloride]	35.6
COc1ccc(C(=O)NCc2ccc(OCCN(C)C)cc2)cc1OC [Itopride hydrochloride]	97.5
CCN(c1cc(-c2ccc(CN3CCOCC3)cc2)cc(C(=O)NCc2c(C)cc(C)[nH]c2=O)c1C)C1CCOCC1 [Tazemetostat (EPZ-6438)]	91.8
Cn1c([N+](=O)[O-])cnc1COC(N)=O [Ronidazole]	88.8
CN(C)[C@@H]1C(O)=C(C(N)=O)C(=O)[C@@]2(O)C(O)=C3C(=O)c4c(O)ccc(Cl)c4[C@@H](O)[C@H]3C[C@@H]12 [Demeclocycline HCl]	84.7
CCC1(c2c[nH]cn2)Cc2ccccc2C1 [Atipamezole]	91
CCC1(c2c[nH]cn2)Cc2ccccc2C1 [Atipamezole hydrochloride]	97.1
O=S(=O)(O)CCS [Mesna]	83.1
CCn1cc(C(=O)O)c(=O)c2cnc(N3CCCC3)nc21 [Piromidic Acid]	96.3
CCOc1ccccc1OCCN[C@H](C)Cc1ccc(OC)c(S(N)(=O)=O)c1 [Tamsulosin hydrochloride]	89.9
CCCCCCCCCCCCC[N+](C)(C)Cc1ccccc1 [Benzalkonium chloride]	55.2

A second format for some results above.

| SMILES | cell viability [%] |
| --- | --- |
| CN(C)[C@@H]1C(O)=C(C(N)=O)C(=O)[C@@]2(O)C(O)=C3C(=O)c4c(O)ccc(Cl)c4[C@@H](O)[C@H]3C[C@@H]12 [Demeclocycline HCl] | 84.7 |
| CCC1(c2c[nH]cn2)Cc2ccccc2C1 [Atipamezole] | 91 |
| CCC1(c2c[nH]cn2)Cc2ccccc2C1 [Atipamezole hydrochloride] | 97.1 |
